Laboratory results as given in PMC8264791.
Results are given in words; binding and its absence hold for the method and conditions named. In cells and extracts the contact can be indirect. These calls come from enrichment with a bait or labelling near it, and not all partners need be listed. Sequences can lack the tags named with a protein. Blank lines part the entries; values can stand above or below the binder they belong to.

Molecular target: T1, GFP-SKD1 (SUPPRESSOR OF K(+) TRANSPORT GROWTH DEFECT 1) (A. thaliana) (UniProt Q9ZNT0)
T1 sequence: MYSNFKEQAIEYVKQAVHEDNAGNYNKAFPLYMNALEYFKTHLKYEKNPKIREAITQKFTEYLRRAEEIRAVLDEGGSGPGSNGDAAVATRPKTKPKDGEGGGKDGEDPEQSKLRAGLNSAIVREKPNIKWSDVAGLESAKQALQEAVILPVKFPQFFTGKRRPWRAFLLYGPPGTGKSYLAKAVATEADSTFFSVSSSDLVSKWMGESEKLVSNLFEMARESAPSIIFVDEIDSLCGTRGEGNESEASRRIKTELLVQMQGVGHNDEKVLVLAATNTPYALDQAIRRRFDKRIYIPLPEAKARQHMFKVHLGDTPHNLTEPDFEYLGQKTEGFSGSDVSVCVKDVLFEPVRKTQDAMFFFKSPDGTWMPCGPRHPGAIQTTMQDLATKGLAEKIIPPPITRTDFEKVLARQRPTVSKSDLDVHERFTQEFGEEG
Assay: affinity purification with mass spectrometry; GFP-SKD1 immunoprecipitated with the GFP Isolation kit (Miltenyi Biotec; anti-GFP magnetic beads) from extracts of rosette leaves of 35S::GFP-SKD1 plants, heat-treated or kept at RT; on-bead digest, LC-MS/MS; 35S::YFP line as negative control; 3 replicates each

B2: ROOTS CURL IN NPA 1 (protein, UniProt Q38845 1-588)
chain: MAMVDEPLYPIAVLIDELKNDDIQLRLNSIRRLSTIARALGEERTRKELIPFLSENSDDDDEVLLAMAEELGVFIPFVGGIEFAHVLLPPLESLCTVEETCVREKAVESLCKIGSQMKENDLVESFVPLVKRLAGGEWFAARVSACGIFHVAYQGCTDVLKTELRATYSQLCKDDMPMVRRAAASNLGKFATTVESTFLIAEIMTMFDDLTKDDQDSVRLLAVEGCAALGKLLEPQDCVARILPVIVNFSQDKSWRVRYMVANQLYELCEAVGPDCTRTDLVPAYVRLLRDNEAEVRIAAAGKVTKFCRLLNPELAIQHILPCVKELSSDSSQHVRSALASVIMGMAPILGKDSTIEHLLPIFLSLLKDEFPDVRLNIISKLDQVNQVIGIDLLSQSLLPAIVELAEDRHWRVRLAIIEYVPLLASQLGIGFFDDKLGALCMQWLQDKVYSIREAAANNLKRLAEEFGPEWAMQHLVPQVLDMVNNPHYLHRMMVLRAISLMAPVMGSEITCSKFLPVVVEASKDRVPNIKFNVAKLLQSLIPIVDQSVVDKTIRQCLVDLSEDPDVDVRYFANQALNSIDGSTAAQS
binding: binds

B4: PLASMA MEMBRANE … PROTEIN 1-3 (protein, UniProt Q08733 1-286)
chain: MEGKEEDVRVGANKFPERQPIGTSAQTDKDYKEPPPAPFFEPGELSSWSFYRAGIAEFIATFLFLYITVLTVMGVKRAPNMCASVGIQGIAWAFGGMIFALVYCTAGISGGHINPAVTFGLFLARKLSLTRAVFYIVMQCLGAICGAGVVKGFQPNPYQTLGGGANTVAHGYTKGSGLGAEIIGTFVLVYTVFSATDAKRSARDSHVPILAPLPIGFAVFLVHLATIPITGTGINPARSLGAAIIYNKDHAWDDHWIFWVGPFIGAALAALYHQLVIRAIPFKSRS
binding: binds

B7: 14-3-3-like protein GF14 omega (protein, UniProt Q01525 1-259)
chain: MASGREEFVYMAKLAEQAERYEEMVEFMEKVSAAVDGDELTVEERNLLSVAYKNVIGARRASWRIISSIEQKEESRGNDDHVTAIREYRSKIETELSGICDGILKLLDSRLIPAAASGDSKVFYLKMKGDYHRYLAEFKTGQERKDAAEHTLAAYKSAQDIANAELAPTHPIRLGLALNFSVFYYEILNSPDRACNLAKQAFDEAIAELDTLGEESYKDSTLIMQLLRDNLTLWTSDMQDDAADEIKEAAAPKPTEEQQ
binding: binds

B8: PLASMA MEMBRANE … PROTEIN 1-1 (protein, UniProt P61837 1-286)
chain: MEGKEEDVRVGANKFPERQPIGTSAQSDKDYKEPPPAPFFEPGELSSWSFWRAGIAEFIATFLFLYITVLTVMGVKRSPNMCASVGIQGIAWAFGGMIFALVYCTAGISGGHINPAVTFGLFLARKLSLTRALYYIVMQCLGAICGAGVVKGFQPKQYQALGGGANTVAHGYTKGSGLGAEIIGTFVLVYTVFSATDAKRNARDSHVPILAPLPIGFAVFLVHLATIPITGTGINPARSLGAAIIYNKDHSWDDHWVFWVGPFIGAALAALYHVVVIRAIPFKSRS
binding: binds

The remaining lines, values ahead:

binding: binds
B1: VACUOLAR PROTON ATPase SUBUNIT D1 (protein, UniProt Q9LJI5 1-351)
chain: MYGFEALTFNIHGGYLEAIVRGHRAGLLTTADYNNLCQCENLDDIKMHLSATKYGSYLQNEPSPLHTTTIVEKCTLKLVDDYKHMLCQATEPMSTFLEYIRYGHMIDNVVLIVTGTLHERDVQELIEKCHPLGMFDSIATLAVAQNMRELYRLVLVDTPLAPYFSECLTSEDLDDMNIEIMRNTLYKAYLEDFYKFCQKLGGATAEIMSDLLAFEADRRAVNITINSIGTELTREDRKKLYSNFGLLYPYGHEELAICEDIDQVRGVMEKYPPYQAIFSKMSYGESQMLDKAFYEEEVRRLCLAFEQQFHYAVFFAYMRLREQEIRNLMWISECVAQNQKSRIHDSVVYMF

binding: binds
B3: VACUOLAR PROTEIN SORTING 18 (protein, UniProt F4IDS7 1-988)
chain: MDQGRQVFSVDLLERYATKNRGMITCMAAGNDVIVLGTSKGWIIRYDFGVGSSNDIDLAVGRTGEQSIHKVFVDPGGSHCIATVTGVGGAETFYTHAKWLKPRVLSRLKGLLVNAVAWNRQQITEVSTKEIILGTQDGQLFEMAVDEKDKREKYIKFLFELEELPEAFKALQMETANISSGMRYYVMAVTPTRLYSFTGIGTLESVFASYKERAVHFMELPGEIPNSELHFFIKQRRAVHFAWLSGTGIYHGGLNFGAQHSYPNGDENFVENKALLDYSKLSDGTEAVKPGSMALSEYHFLLLIGNKVKVVNRISEQIIEELQFDITSDSVSRGIIGLCSDASANVFYAYDQNSIFQVSVIDEGRDMWKVYLDLKVYAAALANCRDPLQRDQVYLVQAESAFTDKEYLRAASFYAKINYVISFEEVTLKFISINEPEALRTFLLHKLDNLSKDDKCQITMISTWATELYLDKINRLLLEDDTAIENRDSEYHSVIQEFRAFMSDCKDELDEATTVKILESYGRVEELVYFANLKEQYEIVVLHYIQQGEAKKALEVLQKSSVSVELQYQFAPELIMLDAYETVESWMANKNLNPRRLITAMMRYSSGPHAKNETHEVIKYLEFCVHRLHNEDPGIHSLLLSLYAKQEDDGALLRFLQCKFGKGRENGPEFFYDPKYALRLCLKERRTRACVHIYSMMSMHEEAVALALQIDPELAMAEADKVEDDEDLRKKLWLMVAKHVVKQEKGAKRENIRKAIAFLKETDGLLKIEDILPFFPDFALIDDFKEAICSSLEDYNKQIEQLKEEMNDATRGADNIRNDISALTQRYAVIDRDEECGVCKRKILMMSGDFRMAQGYSSAGPLAPFYVFPCGHSFHAQCLITHVTSCAHEEQAEHILDLQKQLTLLGSETRRDINGNRSDEPITSTTTADKLRSELDDAIASECPFCGELMINEITLPFIKPEDSQYSTSWDLRSETNLANQRTISLPV

binding: binds
B5: VACUOLELESS1 (protein, UniProt Q93VQ0 1-858)
chain: MANVSVAAEWQLLYDRYYRKPEIYQMKWKHVDLSRNKVACASFGGPIAVIRDDSKIVQLYAESALRKLRIFNSAGILLSETVWKHPGGRLIGMSWSDDQTLICIVQDGTIYRYNIHAELIEPNMSMGQECFEQNVVECVFWGNGVVCLTEGGQLICIFDFKTMKPSKLPDVPGLAEDDLLQPICLTVREPKYTMSGIAEVLVAVGDDIFVVEEDMVQTIRFDEPSVDDSEMQNDDSGNLIGVVQKMIVSPNGKFLTLFTHDGRIVVVDMETKQIAIDYSCESALPPQQMAWCGMDSVLLYWDEDLMMVGPVGDPVHYFYDEPIILIPECDGVRILSNTNLEFLQRVPDSTESIFKIGSTSPAALLYDALDHFDRRSAKADENLRLIRSSLSEAVESCIDAAGHEFDVTRQRALLRAASYGQAFCSNFQRERVQETCRTLRVLNAVRDPAIGIPLSIQQYKLLTPVVLISRLINANCHLLALRISEYLDMNKEVVIMHWACAKITASPSTPDSHLLEILLDKLQLCKGISYAAVATHADNCGRRKLAAMLVEHEPRSTKQVPLLLSIGEEDTALVKATESGDTDLVYLVIFHIWQKRPPLEFFAMIQGRVLARDLFVAYARCHKHEFLKDFFLSTGQIHEVAFLLWKESWDMGKNPMASKGSPLHGPRIKLIEKARNLFSQTKEHTFESKAAEEHAKLLKIQHELEASTKQAIFVDSSINDTIRTCIVLGNNRAAIKVKTEFKVSDKRWYWLKAFALATIKDWAALEKFSKEKRPPMGFRPFVEACIDADEKAEALKYIPKLSDLVERGEAYARIGMAKEAADCAAQANDGGELLERFRKTFVQNAIFDTLLMPFQGAS

binding: binds
B6: VACUOLAR PROTON ATPase SUBUNIT A3 (protein, UniProt Q8W4S4 1-821)
chain: MAESGGGGGCCPPMDLMRSETMQLVQLIVPMESAHLTVSYLGDLGLVQFKDLNSEKSPFQRTYAAQIKRCGEMARKIRFFRDQMSKAGVPAKEMQGKENDIDLDDVEVKLGELEAELVEINANNDKLQRSYNELMEYKLVLQKAGEFFSSAHRSAADQQRETESQQAGEDLLESPLLQEEKSIDSTKQVKLGFLTGLVPREKSMVFERILFRATRGNIFIRQTVIEEPVIDPNSGEKAEKNVFVVFYSGERAKSKILKICEAFGANRYPFSEDLGRQAQMITEVSGRLSELKTTIDAGLGQRNILLQTIGDKFELWNLKVRKEKAIYHTLNMLSLDVTKKCLVAEGWSPVFASREIQDALQRAAVDSNSQVGSIFQVLRTKESPPTYFRTNKFTSAIQEIVDAYGVAKYQEANPGVFTIVTFPFLFAVMFGDWGHGICILLATMYLILKEKKLASQKLGDIMEMAFGGRYVILMMSLFSIYTGLIYNEFFSIPFPLFAPSAYDCRDVSCSEATTIGLIKVRDTYPFGLDPVWHGSRSELPFLNSLKMKMSILLGVSQMNLGIIMSYFNARFFKSSVNIWFQFIPQMIFLNSLFGYLSVLIIIKWCTGSQADLYHVMIYMFLSPMDELGENQLFPHQKTLQLVLLFLALVSVPCMLLPKPFILKKQHEARHQGQAYAPLDETDESLHVETNGGGSHGHEEFEFSEIFVHQLIHTIEFVLGAVSNTASYLRLWALSLAHSELSSVFYEKVLLLAWGYNNPLILIVGVLVFIFATVGVLLVMETLSAFLHALRLHWVEFQNKFYEGDGYKFAPFTFIFTANEDE

binding: binds
B9: VACUOLAR PROTEIN SORTING 41 (protein, UniProt P93043 1-980)
chain: MAAVPPENGVDGDDEREEEEEDEEEEEEEEEEENGDEAEEEPRLKYQRMGGNVPALLSNDAASCIAVAARMIALGTHDGTVRILDLLGNQVKEFRAHTAPVNDINFDTEGEYIGSCSDDGSVVINSLFTDDEKMKFDYHRPMKAISLDPDYTKKQSKRFVAGGLAGHLYMNSKKWFGNKDQVLHSGEGPIHSVKWRGSLIAWANDVGVKVYDTAKDQRVTFIEKPRGSPRPEALLPHLVWQDDTLLVIGWGTSVKIASIKSDQQQTGTFRQIQMSSLTQVDIVASFQTSYYISGIAPFGDSLVILAYIPIEGDGEKEFSSTTTLSRQGNAQRPEIRIVSWNNDELTMDALPVHGFEHYKAKDYSLAHAPFPGSSYAGGQWAAGDEPLYYIVSPKDVVIAKPRDAEDHINWLLQHGFHEKALAAVEASEGRTELIDKVGAGYLDHLIVERKYAEAASLCPKLLRGSASAWERWVFHFAQLRQLPVLVPYMPTDNPRLKDTVYEVALVALATNPSYHKELLSAVKSWPRSVYSALTVISAIEPQLNTSSMTDALKEALAELYVIDGQYQKAFSLYADLLKPEVFDFIEKYSLHEAIRGKVVQLMLLDCKRATVLFIQNRDLIPPSEVVPQLLKAGKNPQVLKAGKKCDSRYYLYLYLHALFEVSHDTGKDFHDMQVELYAEYDTKMLLPFLRSSQHYKLEKAYELCVKKDFLREQVFVLGRMGNAKQALAVIINKLGDIEEAVEFVSMQHDDDLWEELIKQCLNKPEMVGLLLEHTVGNLDPLYIVNMVPNGLEIPRLRDRLVKIVTDYRTETSLRHGCNDILKTDIVNLLVKCFNEARRGVCLSHEDDDSRAKREDNNRSSFSQRMVVDKSLSIKMTEVKSKTRGDTRCCMCFDPVSIRGDTVVVFFCCHAYHETCLMDAAFSNNNHKTTKGSSGYEYSYDNGVDEEEEDEEEDEDGDGDRPGRSRLRCILCTTAAAASAR
